# Results are given in words; binding and its absence hold for the method and conditions named. Some results given as binding are weak or reduced against the parent protein; the word gives no strength.
# B1: full-length human SLC30A1 protein (natural protein, UniProt Q9Y6M5 1-507, looked up)
# chain: MGCWGRNRGRLLCMLALTFMFMVLEVVVSRVTSSLAMLSDSFHMLSDVLALVVALVAERFARRTHATQKNTFGWIRAEVMGALVNAIFLTGLCFAILLEAIERFIEPHEMQQPLVVLGVGVAGLLVNVLGLCLFHHHSGFSQDSGHGHSHGGHGHGHGLPKGPRVKSTRPGSSDINVAPGEQGPDQEETNTLVANTSNSNGLKLDPADPENPRSGDTVEVQVNGNLVREPDHMELEEDRAGQLNMRGVFLHVLGDALGSVIVVVNALVFYFSWKGCSEGDFCVNPCFPDPCKAFVEIINSTHASVYEAGPCWVLYLDPTLCVVMVCILLYTTYPLLKESALILLQTVPKQIDIRNLIKELRNVEGVEEVHELHVWQLAGSRIIATAHIKCEDPTSYMEVAKTIKDVFHNHGIHATTIQPEFASVGSKSSVVPCELACRTQCALKQCCGTLPQAPSGKDAEKTPAVSISCLELSNNLEKKPRRTKAENIPAVVIEIKNMPNKQPESSL
# notes: SLC30A1 (zinc transporter 1), human, full-length cDNA with codon optimization; Homodimer in the cryo-EM structure; the C291 residues of the two protomers form a disulfide bond; also called WT SLC30A1; wild-type SLC30A1; source: HEK293F, transfected (pEZT vector), purified (Strep-Tactin beads, Superose 6 gel filtration) in LMNG/CHS
# Target: WT SLC30A1 expressed in cells (lysate for non-reducing SDS-PAGE) (human) (UniProt Q9Y6M5)
# Test: non-reducing SDS-PAGE with Western blot; lysates of cells expressing EV, WT SLC30A1 or mutants, separated by non-reducing SDS-PAGE
binder,measurement,value
B1,binding,binds

# Reference: paper PMC11633486, “The Intestinal Transporter SLC30A1 Plays a Critical Role in Regulating Systemic Zinc Homeostasis” (Advanced Science, 2024)
